# Experimental data as given in the supplement of paper PMC12462457.
# Where a name gives a salt, the structure may show the parent alone. ± gives the standard deviation of the averaged measurements. This is one part of the list. This data set is noisy: repeats of one test often differ as much as different tests do.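 Imaging of DAPI-stained nuclei was used to count cells; those without phalloidin-stained cytoplasm were treated as dead and excluded. Every well's count was divided by the median of same-plate vehicle wells, then averaged across two replicate plates.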
# System: OVCAR8
# Assay: cell count relative to DMSO vehicle (fold change); higher = more surviving senescent cells (less killing)
# Settings: senescence inducer: cisplatin 10 µM 48 h, then 6 d recovery (CP senescent), exposure time 24 h
SMILES,cell count (compound dose 1 µM),cell count (compound dose 5 µM)
O=C(/C=C/c1ccc(O)c(O)c1)OCCc1ccccc1,1.17 ± 0.29,1.02 ± 0.13
CC[C@H](C)C(=O)O[C@H]1CCC=C2C=C[C@H](C)[C@H](CC[C@@H]3C[C@@H](O)CC(=O)O3)[C@H]21 [Mevastatin],1.428 ± 0.0057,1.1 ± 0.37
CC(=O)[C@]1(O)Cc2c(O)c3c(c(O)c2[C@@H](O[C@H]2C[C@H](N)[C@H](O)[C@H](C)O2)C1)C(=O)c1ccccc1C3=O [Idarubicin (hydrochloride)],0.416 ± 0.11,0.226 ± 0.14
CN(C)c1ncnc2c1ncn2[C@@H]1O[C@H](CO)[C@@H](N)[C@H]1O [Puromycin aminonucleoside],0.849 ± 0.15,0.837 ± 0.09
CCCOc1ccn2c(C(C)=O)cc(-c3ccccc3S(C)(=O)=O)c2c1,1.12 ± 0.22,1.11 ± 0.23
Cc1nc(=O)c2cc(CN(C)c3ccc(C(=O)N[C@@H](CCC(=O)O)C(=O)O)s3)ccc2[nH]1 [Raltitrexed],0.898 ± 0.096,0.886 ± 0.21
O=c1c(O[C@@H]2O[C@H](CO)[C@@H](O)[C@H](O)[C@H]2O)c(-c2ccc(O)cc2)oc2cc(O)cc(O)c12 [Astragalin],0.844 ± 0.079,1.03 ± 0.016
Cn1cc(C2=C(c3coc4ccc(F)cc34)C(=O)NC2=O)c2cc3c(cc21)OCO3,1.14 ± 0.16,1.03 ± 0.096
COCC[n+]1c2c(n(Cc3cnccn3)c1C)C(=O)c1ccccc1C2=O [Sepantronium (bromide)],0.202 ± 0.016,0.102 ± 0.03
CO[C@]1(CC[C@@H](C)CO[C@@H]2O[C@H](CO)[C@@H](O)[C@H](O)[C@H]2O)O[C@H]2C[C@H]3[C@@H]4CC=C5C[C@@H](O[C@@H]6O[C@H](CO)[C@@H](O[C@@H]7O[C@@H](C)[C@H](O)[C@@H](O)[C@H]7O)[C@H](O)[C@H]6O[C@@H]6O[C@@H](C)[C@H](O)[C@@H](O)[C@H]6O)CC[C@]5(C)[C@H]4CC[C@]3(C)[C@H]2[C@@H]1C [Methyl protodioscin],0.632 ± 0.22,0.139 ± 0.04
COC(=O)C1=CC[C@@]23CC[C@@H]([C@@](C)(/C=C/C=C(\C)C(=O)O)OC2=O)[C@@]3(OC(C)=O)CC1 [Pseudolaric Acid B],0.837 ± 0.014,0.519 ± 0.055
CN1C(=O)/C(=C2/C(=O)Nc3ccccc32)c2ccccc21 [Meisoindigo],1.23 ± 0.045,1.09 ± 0.11
CN1C(=O)C(C)(C)Oc2c(-c3cn(C)c(=O)c4[nH]ccc34)cc(S(C)(=O)=O)cc21,0.61 ± 0.046,0.409 ± 0.032
CCOC(=O)Nc1cc(-c2ccc(C)c(NS(C)(=O)=O)c2)nn2c(C)nnc12 [Bromosporine],0.725 ± 0.14,0.715 ± 0.013
CCCCCC1CC1CC1CC1CCCCCCCC(=O)O (stereo not drawn),0.974 ± 0.066,0.804 ± 0.12
C[C@@H]1CCN(C(=O)CC#N)C[C@@H]1N(C)c1ncnc2[nH]ccc12 [Tofacitinib],1.23 ± 0.2,1.09 ± 0.17
C[C@@H]1CCN(C(=O)CC#N)C[C@@H]1N(C)c1ncnc2[nH]ccc12,0.97 ± 0.093,1.17 ± 0.3
COc1cc(O)c(CC=C(C)C)c(O)c1C(=O)/C=C/c1ccc(O)cc1 [Xanthohumol],0.778 ± 0.044,0.9365 ± 0.0021
CN(C)CCOc1ccc(/C(=C(/CCCl)c2ccccc2)c2ccccc2)cc1 [Toremifene (citrate)],1.14 ± 0.21,1.09 ± 0.17
C[C@H]1C[C@H]2[C@@H]3CCC4=CC(=O)C=C[C@]4(C)[C@@]3(F)[C@@H](O)C[C@]2(C)[C@@]1(O)C(=O)CO [Betamethasone],1.21 ± 0.033,1.01 ± 0.32

# Single entries from the list.
# Value for CN1C(=O)C(C)(C)Oc2c(-c3cn(C)c(=O)c4[nH]ccc34)cc(S(C)(=O)=O)cc21 under cell count (compound dose 1 µM): 0.61 ± 0.046
# Value for CC[C@H](C)C(=O)O[C@H]1CCC=C2C=C[C@H](C)[C@H](CC[C@@H]3C[C@@H](O)CC(=O)O3)[C@H]21 [Mevastatin] under cell count (compound dose 5 µM): 1.1 ± 0.37

# Additional records follow.

SMILES,cell count (compound dose 1 µM),cell count (compound dose 5 µM)
Cc1noc(C)c1-c1cc(Cl)c(Nc2ccccc2C(=O)NO)c(Cl)c1,1.17 ± 0.067,1.06 ± 0.082
COc1cc2nccc(Oc3ccc(NC(=O)C4(C(=O)Nc5ccc(F)cc5)CC4)cc3)c2cc1OC,1.21 ± 0.14,1.05 ± 0.45
COc1cc2nccc(Oc3ccc(NC(=O)C4(C(=O)Nc5ccc(F)cc5)CC4)cc3)c2cc1OC [Cabozantinib malate (XL184)],0.939 ± 0.068,0.694 ± 0.016
CCOc1nc2cccc(C(=O)O)c2n1Cc1ccc(-c2ccccc2-c2noc(=O)[nH]2)cc1 [Azilsartan],0.993 ± 0.049,0.837 ± 0.45
FC1(F)N=C(c2ccc(Cl)cc2)SC1(F)c1ccc(Cl)cc1 (stereo not drawn) [Fluorizoline],0.323 ± 0.014,0.091 ± 0.059
COc1cc(O)cc(O)c1C(=O)/C=C/c1ccccc1 [Cardamonin],0.97 ± 0.034,1.08 ± 0.067
Cc1cnc(NC(=O)C2=C(O)c3ccccc3S(=O)(=O)N2C)s1,0.975 ± 0.2,0.728 ± 0.32
CC(C)Oc1ccc(C(=O)N[C@H](CNC(=O)CN(C)C)Cc2ccc(-c3cn4cccc([C@H](C)O)c4n3)cc2)cc1Cl,1.24 ± 0.2,1.08 ± 0.17
COc1ccc(/C=C/C(=O)c2c(O)cc(OC)cc2OC)cc1 [Flavokawain A],1.198 ± 0.0064,1.36 ± 0.15
C=C(C)[C@@H]1CC[C@]2(C(=O)O)CC[C@]3(C)[C@H](CC[C@@H]4[C@@]5(C)CC[C@H](O)[C@@](C)(CO)[C@@H]5CC[C@]43C)[C@@H]12 [23-Hydroxybetulinic acid],1.1 ± 0.073,0.975 ± 0.074
CCOc1cc2ncc(-c3cc(N)nc(F)c3)n2cc1S(=O)(=O)C(C)(C)C,1.01 ± 0.033,0.723 ± 0.026
OC[C@H]1O[C@@H](n2cnc3c(NCc4ccco4)ncnc32)[C@H](O)[C@@H]1O [Kinetin riboside],0.843 ± 0.14,0.474 ± 0.043
O=c1cc(-c2ccc(O)c(-c3c(O)cc(O)c4c(=O)cc(-c5ccc(O)cc5)oc34)c2)oc2cc(O)cc(O)c12 [Amentoflavone],1.05 ± 0.12,0.637 ± 0.33
COc1ccccc1S(=O)(=O)Nc1ccc2c(c1)CN(C)C(=O)N2,1.06 ± 0.08,0.524 ± 0.19
C=CC(=O)Nc1ccc2ncnc(Nc3cccc(Br)c3)c2c1,1.3 ± 0.07,0.871 ± 0.56
COc1cc(/C=C(\C#N)C(N)=O)cc(CSc2nc3ccccc3s2)c1O,1.09 ± 0.18,1.04 ± 0.17
CNCC[C@H](CSc1ccccc1)Nc1ccc(S(=O)(=O)NC(=O)c2ccc(N3CCN(CC4=C(c5ccc(Cl)cc5)CCC(C)(C)C4)CC3)cc2)cc1S(=O)(=O)C(F)(F)F [Desmorpholinyl Navitoclax-NH-Me],0.247 ± 0.054,0.203 ± 0.029
O=C(NOC[C@H](O)CO)c1ccc(F)c(F)c1Nc1ccc(I)cc1F,1.02 ± 0.06,0.634 ± 0.16
COc1ccc2c(c1)C(c1ccc(F)cc1)=C(CN1CCCC1)CO2,1.09 ± 0.23,0.919 ± 0.023
